# Library screen at single concentrations

From ChEMBL document CHEMBL3988442, “University of Dundee, Small-Polar-MMV Screening Library” (2021).

The filed quantity is “Percent Effect” (%). The record does not define 0% and 100%; most values in the screen are far below 50% and negative numbers occur (in some assays of this library far below -100). Compounds were drawn at random from those tested, without regard to their results. Two or more numbers in one place are separate tests of the same structure; such repeats can differ widely.

Mtb glucose medium: 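Growth of Mycobacterium tuberculosis over 3 days (7H9 medium with glucose and tyloxapol); the read-out is not stated. Compounds at 50 µM. Direction is inferred from retests: higher values go with more growth inhibition. Size under these conditions: about 69,000 compounds, about 760 of them at 50% or above in at least one test.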
Mtb cholesterol medium: 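Whole-cell growth test on Mycobacterium tuberculosis, read after 4 days in a medium based on cholesterol and the lipid DPPC; the read-out is not stated. Compounds at 50 µM. Higher reads as more growth inhibition (inferred: compounds with an IC50 in retests scored well above the rest). About 69,000 compounds were tested under these conditions; 0.54% (about 370) showed 50% or more at least once.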

| # | compound | Mtb glucose medium | Mtb cholesterol medium |
|---|---|---|---|
| 1 | `C[C@@H]1CN(C(=O)CCc2cnn(C)c2)CC[C@@]1(O)C1CCOCC1` | -6.021% | 5.142% |
| 2 | `C=C(C)CN1CCC(n2cc(C3CCCC3)nn2)CC1` | 28.66% | 18.98% and 14.08% |
| 3 | `CC(C)n1c2ccccc2c2c1cc(C(=O)N(C)C)n2C(=O)N(C)C` | 2.191% | 7.162% |
| 4 | `Cc1cccnc1N1CCN(C(=O)CCc2ccccn2)CC1` | 5.465% | -31.93% |
| 5 | `CCC(CC(=O)Nc1ccc2c(c1)CC(=O)N2)c1ccccc1` (stereo unspecified) | 6.612% | 2.87% |
| 6 | `[H][C@]12C[C@@H](CN(C)C)N(C(C)=O)[C@@]1([H])CCN(C(=O)c1ccsc1)C2` | -27.88% | -20.34% |
| 7 | `COC(=O)c1ccc(N(C(=O)c2cccnc2C)C(C)C)c(C)c1` | -8.587% | -20.35% |
| 8 | `Cc1ccc(CCNc2nc(-c3ccncc3)nc3c2CCNCC3)o1` | 20.73% and 18.3% | -1.81% and 1.026% |
| 9 | `Cc1cc(NC(=O)CNC2CCc3ncnn3C2)on1` (stereo unspecified) | -13.01% and -2.006% | 8.436% |
| 10 | `CSc1nc2cc(C)n(CC(N)=O)c2c(=O)n1CC(C)C` | -21.32% | 0.5543% |
| 11 | `CC(=O)Nc1ccc(CNc2ccn(Cc3ccccc3)n2)cc1` | 2.166% | -0.4484% |
| 12 | `Cc1oc(C)c(C(=O)NCc2ccccc2S(=O)(=O)N(C)C)c1C` | -25.81% | 0.4883% |
| 13 | `Cn1cc(C2CCCN2Cc2csc(C3CCCC3)n2)cn1` (stereo unspecified) | -19.46% | 0.9609% |
| 14 | `CNC(=O)c1sccc1N(C)S(=O)(=O)c1ccc(Cl)cc1` | -42.79% | -25.82% |
| 15 | `CC(NC(=O)Nc1cnn(CC(N)=O)c1)c1ccc(Cl)s1` (stereo unspecified) | 25.78% | -3.617% |
| 16 | `CC1(C)CN(CC(F)(F)F)CCN1CC(=O)N1CCCCC1` | -10.39% | 8.348% |
| 17 | `O=C(c1ccc(N2CCCC2)nn1)N1CCCc2cc(F)c(F)cc21` | 5.458% and 7.381% | -7.776% |
| 18 | `O=C(CN1CCOCC1)N1CCN(C2CCc3ccc(F)cc32)CC1` (stereo unspecified) | -2.134% and 3.912% | -0.5105% |
| 19 | `Cc1cnc(CNC(=O)N(Cc2ccccc2)CC(C)(C)O)s1` | 4.701% and 3.049% | -8.847% |
| 20 | `CC(C)C1SCC(=O)Nc2c1cnn2-c1ccc(Cl)cc1` (stereo unspecified) | 11.15% | 11.02% |
| 21 | `Cc1c[nH]cc1C(=O)N1CCN(Cc2nc(C(C)C)no2)CC1` | 6.952% | 0.6938% |
| 22 | `Cc1cccc(CN2CCOC3(CCCN(CC(=O)N(C)C)C3)C2)n1.O=C(O)C(F)(F)F.O=C(O)C(F)(F)F` (stereo unspecified) | 2.189% | 0.7669% |
| 23 | `O=C(NCc1ccccn1)NC1CCCN(c2ncccn2)C1` (stereo unspecified) | 11.33% | 4.607% |
| 24 | `Cc1c(C(=O)NCC2CCN(Cc3c[nH]cn3)C2)[nH]c2ccccc12` (stereo unspecified) | 17.36% | -21.04% |
| 25 | `CCN(Cc1ccc(CN(C)C)cc1)C(=O)c1ccncc1O` | -13% | -2.109% |
| 26 | `CC(C)c1noc(CCNC(=O)N2CCC(O)(C(F)(F)F)C2)n1` (stereo unspecified) | -25.93% | -3.676% |
| 27 | `O=C(O)C(F)(F)F.[H][C@]12CN(CC)C[C@@]1(C(=O)O)CCCN(c1cc(OC)ncn1)C2` | -10.82% and -7.613% | -18.95% and 2.904% |
| 28 | `CC(C)NC(=O)CCNC(=O)c1cnc(Cc2ccc(F)cc2)s1` | 14.22% | 10.83% and -9.174% |
| 29 | `O=C(NCC1CCN(CCc2ccccc2)C1)c1cc(Cl)c[nH]1` (stereo unspecified) | 7.647% | 2.215% |
| 30 | `COc1ccc(N2CCN(CC[C@H](O)c3ccccc3)CC2=O)cc1` | 25.65% | 20.39% |
| 31 | `Cc1ccc(-c2nc(CCNC(=O)NC3CCC(O)CC3)co2)cc1` (stereo unspecified) | 9.314% | 18.52% |
| 32 | `Cc1cnn(CC2CCCCN2Cc2nnsc2Cl)c1` (stereo unspecified) | 8.205% | 4.549% |
| 33 | `CCCC1CCCN(C(=O)CNC(=O)c2ccoc2C)CC1` (stereo unspecified) | 22.21% and 18.47% | 20.66% |
| 34 | `CC(C)C(C)N1Cc2cccc(NCC(=O)N(C)C)c2C1` (stereo unspecified) | -62.5% | -25.52% |
| 35 | `O=S(=O)(NCCn1ccc(-c2cccs2)n1)C1CC1` | 22.73% | 15.98% |
| 36 | `O=C(O)C1CCCN(C(=O)CCn2ccc3c(Br)cccc32)C1` (stereo unspecified) | 24.61% | 1.157% |
| 37 | `O=C(CN1CCOC(Cn2cccn2)C1)NCCc1ccc(F)cc1` (stereo unspecified) | 12.23% | -2.701% |
| 38 | `CCSCC(C)NCc1nn(C)c2ccc(C)cc12` (stereo unspecified) | -29.13% | -22.63% |
| 39 | `O=C(Cn1cc(-c2ccccc2)ncc1=O)Nc1ncc[nH]1` | -11.15% | -19.29% |
| 40 | `COc1cc(OC)cc(-c2noc(C(N)CCSC)n2)c1` (stereo unspecified) | -0.1528% | -9.711% |
| 41 | `COc1cccc(NC(=O)CN(C(C)C)C2CC2)c1` | -10.81% and -5.353% | -2.26% |
| 42 | `O=C(c1cc(Cl)c[nH]1)N(CCCO)Cc1cccnc1` | 0.6472% | -13.52% and -8.882% |
| 43 | `CN(C)c1ccc(C(=O)Nc2cn[nH]c2)cc1` | 16.64% | -2.214% |
| 44 | `CC(C)(C)C(=O)NCCC(=O)N1CCC(Nc2cccnn2)CC1` | -8.176% | 9.56% |
| 45 | `Cc1nc(C)c(C(=O)N2CCc3nnc(C4CCCCN4C)n3CC2)o1` (stereo unspecified) | -27.33% | -17.79% and 6.667% |
| 46 | `COC(C)(C)Cn1ccnc1-c1cccc(C(C)N(C)C)c1` (stereo unspecified) | -1.382% | -4.927% |
| 47 | `CCc1cccc(CC(=O)NC2CCN(C(=O)NC(C)(C)C)CC2)c1` | 21.08% and 0.7647% | 19.42% |
| 48 | `CCCC(=O)N1CCN(c2cc(-n3cnc(C)c3C)nc(C)n2)CC1` | 41.39% | -2.64% and 12.7% |
| 49 | `CC(C)N1CCC(N2CCC(C(=O)N(C)C)CC2)CC1.O=C(O)C(F)(F)F.O=C(O)C(F)(F)F` | -4.759% | -5.003% |
| 50 | `Cc1ccc(S(=O)(=O)N2CCN(C)C3(CCC(=O)N(C)CC3)C2)s1` (stereo unspecified) | -1.483% and 23.94% | 0.2504% |
| 51 | `CC(C(=O)NCC(C)(C)c1ccc2c(c1)OCCO2)n1cncn1` (stereo unspecified) | 2.522% | -17.23% |
| 52 | `O=C(CN1CCCCC1Cn1cncn1)NCc1ccccn1` (stereo unspecified) | 4.351% | 5.854% |
| 53 | `CS(=O)(=O)CCCSc1n[nH]c(-c2ccc3c(c2)CCC3)n1` | 7.684% | 7.284% |
| 54 | `O=C(O)c1cc(S(=O)(=O)Nc2ccc(F)cc2Cl)cc2c1OCCO2` | -2.658% | -24.28% |
| 55 | `COc1ccc(NC(C)C(=O)N2CCN(c3ccccc3)CC2)cn1` (stereo unspecified) | -8.927% and 1.904% | -18.8% |
| 56 | `CSCc1nc(CCNC(=O)C2CCCN(C(C)=O)C2)cs1` (stereo unspecified) | -9.002% | -3.995% |
| 57 | `CCc1csc(C2CCCN(C(=O)CCn3cc(C)cn3)C2)n1` (stereo unspecified) | -19.33% | -10.68% |
| 58 | `O=C(Nc1ccc(Cl)cn1)C1CCN(CCc2ccccn2)CC1` | 18.88% | 24.42% |
| 59 | `CC(C)N(Cc1ccc(Cl)c(Cl)c1)C(=O)CCn1cncn1` | 11.11% and 2.201% | 9.19% |
| 60 | `CN(C)C(=O)c1cc(NC(=O)N2CCCC(C(F)(F)F)C2)ccn1` (stereo unspecified) | -10.92% | -6.569% |
| 61 | `Cc1ccc(C(=O)Cc2c(Cl)nc3n(C)c(=O)n(C)c(=O)n23)cc1` | -7.357% | -21.94% |
| 62 | `CCC(=O)NCc1cc(Br)c(OC)c(OC)c1` | 9.951% | 7.638% |
| 63 | `Fc1ccc(-c2nc(CN3CCCCC3Cn3cncn3)co2)cc1` (stereo unspecified) | 6.24% | -5.848% |
| 64 | `O=C(O)C(F)(F)F.[H][C@@]12COC[C@H](C(=O)NCc3ccco3)[C@]1([H])CN(Cc1ccoc1)C2` | -37.19% | -13.29% and -19.03% |
| 65 | `O=C(C1CC1)N1CCC2(CCCN2Cc2ccc(F)cc2)CC1.O=C(O)C(F)(F)F` | 14.95% | -0.5679% |
| 66 | `[H][C@]12CN(Cc3nc(C)cs3)C[C@@]1([H])OCCN(S(C)(=O)=O)C2` | -17.57% | -9.472% |
| 67 | `O=C(CC1CCCCC1)N1CCC(c2ncc3c(n2)CCNC3)CC1` | 13.08% | 3.697% |
| 68 | `CCN(CC)S(=O)(=O)c1ccc(CNC(=O)c2cc(C)on2)cc1` | 36.37% | 50.49% |

Some entries from above, unchanged:

| compound | Mtb glucose medium | Mtb cholesterol medium |
|---|---|---|
| `O=C(NCc1ccccn1)NC1CCCN(c2ncccn2)C1` (stereo unspecified) | 11.33% | 4.607% |
| `Cc1ccc(-c2nc(CCNC(=O)NC3CCC(O)CC3)co2)cc1` (stereo unspecified) | 9.314% | 18.52% |
| `CSCc1nc(CCNC(=O)C2CCCN(C(C)=O)C2)cs1` (stereo unspecified) | -9.002% | -3.995% |
| `O=C(Cn1cc(-c2ccccc2)ncc1=O)Nc1ncc[nH]1` | -11.15% | -19.29% |